No constants are given. Whether binding was seen depends on the method and setting. Binding seen in cells or lysates may run through a third protein. Some results given as binding are weak or reduced against the parent protein; the word gives no strength.
Molecular target: β-catenin (human (endogenous in HaCaT)) (UniProt P35222)
Assay: co-IP; anti-β-catenin (BD, 610153) coupled to Protein G Sepharose beads; lysates of WT and OTULIN KD HaCaTs in NP-40 buffer (50 mM tris-HCl pH 7.6, 1 mM EDTA, 150 mM NaCl, 1% NP-40, 0.5% sodium deoxycholate, 0.1% SDS), incubated overnight, washed three times; cells untreated or treated with MG132 for 16 hours; blotted for OTULIN

Amino acid sequences for entries named in this document (tags omitted).
UniProt P35222: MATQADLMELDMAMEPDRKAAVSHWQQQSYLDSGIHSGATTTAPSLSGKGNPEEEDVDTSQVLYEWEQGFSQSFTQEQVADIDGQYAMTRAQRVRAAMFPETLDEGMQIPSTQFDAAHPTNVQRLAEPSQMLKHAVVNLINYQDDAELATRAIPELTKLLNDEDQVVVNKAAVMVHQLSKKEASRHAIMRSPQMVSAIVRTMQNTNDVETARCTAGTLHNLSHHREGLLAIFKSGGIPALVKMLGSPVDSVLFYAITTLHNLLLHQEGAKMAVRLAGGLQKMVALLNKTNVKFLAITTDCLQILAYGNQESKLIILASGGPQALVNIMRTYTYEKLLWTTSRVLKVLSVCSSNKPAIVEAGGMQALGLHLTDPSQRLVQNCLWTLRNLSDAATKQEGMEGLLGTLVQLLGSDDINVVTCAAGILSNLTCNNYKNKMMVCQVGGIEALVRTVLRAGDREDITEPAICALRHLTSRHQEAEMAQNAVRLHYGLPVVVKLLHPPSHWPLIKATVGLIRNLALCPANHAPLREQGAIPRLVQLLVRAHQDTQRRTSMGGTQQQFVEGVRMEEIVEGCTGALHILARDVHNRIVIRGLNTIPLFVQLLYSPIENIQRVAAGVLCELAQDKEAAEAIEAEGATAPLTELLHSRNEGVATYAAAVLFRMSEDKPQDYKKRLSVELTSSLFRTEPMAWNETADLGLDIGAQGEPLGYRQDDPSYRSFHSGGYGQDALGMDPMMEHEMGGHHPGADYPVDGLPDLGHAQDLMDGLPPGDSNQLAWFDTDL
UniProt Q96BN8: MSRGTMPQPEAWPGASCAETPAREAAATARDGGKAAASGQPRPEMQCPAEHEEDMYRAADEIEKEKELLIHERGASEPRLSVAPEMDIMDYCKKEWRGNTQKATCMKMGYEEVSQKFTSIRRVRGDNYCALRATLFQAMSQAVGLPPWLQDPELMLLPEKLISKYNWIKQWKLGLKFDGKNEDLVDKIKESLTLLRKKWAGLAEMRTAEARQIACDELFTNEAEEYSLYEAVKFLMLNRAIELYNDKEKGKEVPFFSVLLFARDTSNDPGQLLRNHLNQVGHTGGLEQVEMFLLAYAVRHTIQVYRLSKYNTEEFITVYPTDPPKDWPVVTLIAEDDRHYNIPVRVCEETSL

OTULIN (OTU DUB with linear linkage specificity) (from UniProt Q96BN8 1-352) (enzyme)
binding: binds
